Measured values published in the supplement of paper PMC4604168 (melanoma cell lines).
The list shows a part of the results. Repeats are few or missing, and single values can be far off.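 The apoptosis fraction was the count of cleaved-PARP antibody-stained nuclei relative to all DNA-stained nuclei, imaged in 1,536-well plates. Screening doses were set so most cells survived, and baseline and induced cleaved-PARP levels vary greatly across cell lines.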

The molecules below were run on IPC-298 (assay: cleaved PARP positive nuclei fraction relative to DMSO control; melanoma cells; higher = more apoptosis). Settings: library dose: low library concentration; 72 h.

Compound | cleaved PARP positive nuclei fraction [%]
Cc1cc(Nc2cc(N3CCN(C)CC3)nc(Sc3ccc(NC(=O)C4CC4)cc3)n2)n[nH]1 [Tozasertib] + Cn1cncc1[C@@](N)(c1ccc(Cl)cc1)c1ccc2c(c1)c(-c1cccc(Cl)c1)cc(=O)n2C [tipifarnib] (first compound 0.006 µM, partner dose 0.01 µM) | 43
Cc1ccc(Nc2nccc(N(C)c3ccc4c(C)n(C)nc4c3)n2)cc1S(N)(=O)=O [Pazopanib] + Cn1cncc1[C@@](N)(c1ccc(Cl)cc1)c1ccc2c(c1)c(-c1cccc(Cl)c1)cc(=O)n2C [tipifarnib] (first compound 0.4 µM, partner dose 0.01 µM) | 50.4
Cc1cc(Nc2cc(N3CCN(C)CC3)nc(Sc3ccc(NC(=O)C4CC4)cc3)n2)n[nH]1 [Tozasertib] + Cc1ccc(NC(=O)c2cccc(N(C)C)c2)cc1NC(=O)c1ccc(O)cc1 [ZM336372] (first compound 0.006 µM, partner dose 2 µM) | 57
CC[C@]1(O)C[C@H]2CN(CCc3c([nH]c4ccccc34)[C@@](C(=O)OC)(c3cc4c(cc3OC)N(C=O)[C@H]3[C@@](O)(C(=O)OC)[C@H](OC(C)=O)[C@]5(CC)C=CCN6CC[C@]43[C@@H]65)C2)C1 [vincristine] + CC1(C)NC(=O)N(c2ccc([N+](=O)[O-])c(C(F)(F)F)c2)C1=O [nilutamide] (first compound 0.0001 µM, partner dose 1 µM) | 45.1
N#CC[C@H](C1CCCC1)n1cc(-c2ncnc3[nH]ccc23)cn1 [ruxolitinib] + CO[C@@H]1[C@H](N(C)C(=O)c2ccccc2)C[C@H]2O[C@]1(C)n1c3ccccc3c3c4c(c5c6ccccc6n2c5c31)C(=O)NC4 [Midostaurin] (first compound 1 µM, partner dose 0.08 µM) | 89.3
CCCCCCCCCCCCCCCCCCOP(=O)([O-])OC1CC[N+](C)(C)CC1 [Perifosine] + COc1cc2c(Oc3ccc4[nH]c(C)cc4c3F)ncnc2cc1OCCCN1CCCC1 [cediranib] (first compound 0.4 µM, partner dose 0.4 µM) | 90.1
N#CC[C@H](C1CCCC1)n1cc(-c2ncnc3[nH]ccc23)cn1 [ruxolitinib] + COc1cc2c(Oc3ccc4[nH]c(C)cc4c3F)ncnc2cc1OCCCN1CCCC1 [cediranib] (first compound 1 µM, partner dose 0.4 µM) | 106
O=C(/C=C/c1cccnc1)NCCCCC1CCN(C(=O)c2ccccc2)CC1 + O=C(O)c1ccc(-c2c[nH]c3ncc(-c4ccccc4)cc23)cc1C1CCCC1 [GSK650394] (first compound 0.01 µM, partner dose 0.16 µM) | 1250
Cc1cc(Nc2cc(N3CCN(C)CC3)nc(Sc3ccc(NC(=O)C4CC4)cc3)n2)n[nH]1 [Tozasertib] + NCC(=O)Nc1ccc(-n2nc(C(F)(F)F)cc2-c2ccc3c(ccc4ccccc43)c2)cc1 [OSU03012] (first compound 0.006 µM, partner dose 1 µM) | 62.4
Cc1cn(-c2cc(NC(=O)c3ccc(C)c(Nc4nccc(-c5cccnc5)n4)c3)cc(C(F)(F)F)c2)cn1 [nilotinib] + CO[C@@H]1[C@H](N(C)C(=O)c2ccccc2)C[C@H]2O[C@]1(C)n1c3ccccc3c3c4c(c5c6ccccc6n2c5c31)C(=O)NC4 [Midostaurin] (first compound 0.2 µM, partner dose 0.08 µM) | 98.5
Cc1ccc(Nc2nccc(N(C)c3ccc4c(C)n(C)nc4c3)n2)cc1S(N)(=O)=O [Pazopanib] + CN(NC(=O)CC(=O)NN(C)C(=S)c1ccccc1)C(=S)c1ccccc1 [STA4783] (first compound 0.4 µM, partner dose 0.006 µM) | 183
COc1cc([C@@H]2c3cc4c(cc3[C@@H](O[C@@H]3O[C@@H]5CO[C@@H](C)O[C@H]5[C@H](O)[C@H]3O)[C@H]3COC(=O)[C@H]23)OCO4)cc(OC)c1O [etoposide] + Cc1ccc(NC(=O)c2cccc(N(C)C)c2)cc1NC(=O)c1ccc(O)cc1 [ZM336372] (first compound 0.02 µM, partner dose 2 µM) | 218
O=C(/C=C/c1cccnc1)NCCCCC1CCN(C(=O)c2ccccc2)CC1 + CN(NC(=O)CC(=O)NN(C)C(=S)c1ccccc1)C(=S)c1ccccc1 [STA4783] (first compound 0.01 µM, partner dose 0.006 µM) | 112

Reformatted: results already given
Compound,cleaved PARP positive nuclei fraction [%]
"Cc1cn(-c2cc(NC(=O)c3ccc(C)c(Nc4nccc(-c5cccnc5)n4)c3)cc(C(F)(F)F)c2)cn1 [nilotinib] + CO[C@@H]1[C@H](N(C)C(=O)c2ccccc2)C[C@H]2O[C@]1(C)n1c3ccccc3c3c4c(c5c6ccccc6n2c5c31)C(=O)NC4 [Midostaurin] (first compound 0.2 µM, partner dose 0.08 µM)",98.5
"Cc1ccc(Nc2nccc(N(C)c3ccc4c(C)n(C)nc4c3)n2)cc1S(N)(=O)=O [Pazopanib] + CN(NC(=O)CC(=O)NN(C)C(=S)c1ccccc1)C(=S)c1ccccc1 [STA4783] (first compound 0.4 µM, partner dose 0.006 µM)",183
"COc1cc([C@@H]2c3cc4c(cc3[C@@H](O[C@@H]3O[C@@H]5CO[C@@H](C)O[C@H]5[C@H](O)[C@H]3O)[C@H]3COC(=O)[C@H]23)OCO4)cc(OC)c1O [etoposide] + Cc1ccc(NC(=O)c2cccc(N(C)C)c2)cc1NC(=O)c1ccc(O)cc1 [ZM336372] (first compound 0.02 µM, partner dose 2 µM)",218
"O=C(/C=C/c1cccnc1)NCCCCC1CCN(C(=O)c2ccccc2)CC1 + CN(NC(=O)CC(=O)NN(C)C(=S)c1ccccc1)C(=S)c1ccccc1 [STA4783] (first compound 0.01 µM, partner dose 0.006 µM)",112
